According to patent US20100041615A1 (Medac Gesellschaft Fur Klinische Spezialpraparate MBH, priority 2006, published 2010):
Not every detail of the peptide structures is certain; ends, links or a residue may be inferred. Starred links: 1 amine or outer side, 2 acyl side, 3 side chain; linkers in the order of their positions; H or OH if unused. Non-standard residues stand in square brackets, D forms with d. Residues, ends and D or L forms follow the SMILES beside them. Groups on a side chain read outwards from the residue. *: point of attachment. DAMPA = CN(Cc1cnc2nc(N)nc(N)c2n1)c1ccc(C(=O)*)cc1; Hexanoyl(6-maleimido) = O=C1C=CC(=O)N1CCCCCC(=O)*; γGlu = O=C(O)[C@H](CCC(=O)[*:2])N[*:1]

Assays:
[1] = test system: collagen-induced arthritis model; assay: Collagen-induced arthritis model, therapy twice a week as of day 14, 42 or 30 (Table 1: early treatment protocol); assay type: in vivo, mice (m, DBA/1)
Procedure: Animals: mice (m, DBA/1; model: collagen-induced arthritis model) Therapy: twice a week as of day 14, 42 and 30, respectively; i. v. (10 mM sodium phosphate/5% D-glucose buffer pH 6.4); dosages relate to methotrexate equivalents.

[2] = test system: collagen-induced arthritis model; assay: In vivo antirheumatic properties, collagen-induced arthritis model, therapy day 30-48; set-up: species or system mice (m, DBA/1); details: FIG. 10
Procedure: Animals: mice (m, DBA/1; model: collagen-induced arthritis model) Therapy: day 30, 34, 37, 41, 44, 48; i. v. (10 mM sodium phosphate/5% D-glucose buffer pH 6.4); dosages relate to methotrexate equivalents.

[3] = test system: OVCAR-3 (ovarian carcinoma growing subcutaneously); assay: In vivo tumor-inhibiting properties, OVCAR-3 model; set-up: species or system nude mice NMRI; details: FIG. 9
Procedure: Animals: nude mice NMRI; tumor model: OVCAR-3 (ovarian carcinoma growing subcutaneously) Therapy: day 7, 14, 21, 28; i. v. (10 mM sodium phosphate/5% D-glucose buffer pH 6.4); dosages relate to methotrexate equivalents.

[4] = 21 mg/kg, n = 14, early treatment protocol
[5] = 42 mg/kg, n = 11, early treatment protocol
[6] = different dosages compared to the NaCl control, early treatment protocol

C[C@@H](NC(=O)CCCCCN1C(=O)C=CC1=O)C(=O)N[C@@H](Cc1ccccc1)C(=O)N[C@@H](CCCCN)C(=O)N[C@@H](CCCCNC(=O)CC[C@H](NC(=O)c1ccc(N(C)Cc2cnc3nc(N)nc(N)c3n2)cc1)C(=O)O)C(=O)O [AW054-EMC, EMC-D-Ala-Phe-Lys-Lys(γ-MTX)-OH] ({Hexanoyl(6-maleimido)}-[dA]FKK([γGlu-DAMPA])-OH)
improved or achieved abatement after created disease, figure in parentheses (share of animals) [1, 4]: (71)
improved or achieved abatement after created disease, number of animals [1, 4]: 10
mean arthritis score at the end of the test [1, 4]: 3.7
mean period of time until breakout of renewed arthritis after beginning of treatment [1, 4]: 6.8 days
occurrence of arthritis at the end of the test (%) [1, 4]: (64) %
occurrence of arthritis at the end of the test, number of animals [1, 4]: 9
improved or achieved abatement after created disease, figure in parentheses (share of animals) [1, 5]: (73)
improved or achieved abatement after created disease, number of animals [1, 5]: 8
mean arthritis score at the end of the test [1, 5]: 0.8
mean period of time until breakout of renewed arthritis after beginning of treatment [1, 5]: 11.5 days
occurrence of arthritis at the end of the test (%) [1, 5]: (18) %
occurrence of arthritis at the end of the test, number of animals [1, 5]: 2
in-vivo effectiveness compared to free methotrexate ([1]; collagen-induced arthritis model, FIGS. 11 to 15 and Table 1): increased
improvement or abatement of developed arthritis [1, 6]: induces an improvement or even an abatement of developed arthritis
mean arthritis score [1, 6]: reduces the mean arthritis score
occurrence of developed arthritis at the end of the test [1, 6]: reduced occurrence of developed arthritis at the end of the test
time until the first occurrence of arthritis [1, 6]: prolongs the time until the first occurrence of arthritis
in-vivo effectiveness compared to free methotrexate [2]: increased
in-vivo effectiveness compared to free methotrexate [3]: increased
